The text below walks through data of PubChem BioAssay AID1487 (National Center for Advancing Translational Sciences (NCATS), 2009).

The term AC50 denotes the concentration at which the activity in the assay is half-maximal.

The nature of the assay: qHTS Assay for Modulators of Lamin A Splicing. To be noted: HeLa LMNA splicing GFP/RFP minigene ratio, 48 h. The gist of the method:
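S3 HeLa cells stably expressing lamin A-EGFP splicing minigene plus DsRed2, 600 cells/well, 48 h compound exposure at 37C. Laser-scanning cytometry; analysed as GFP (500-530 nm)/RFP (575-640 nm) total intensity ratio; 0.5% DMSO vehicle.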

[1] abbreviates: measured here: GFP splicing reporter channel.
Where [2] appears, read: measured here: RFP viability control channel.

This is one part of the list. Shown are side measurements of this screen, not its main read-out; they come without a call. The list favours compounds with an active or inconclusive main result. Words in brackets tell the shape of the fitted curve; partial curves, single points and poor fits give uncertain potencies.

Regarding `CC(=O)c1ccc(NC(=O)c2c(C)nn(-c3ccccc3)c2Cl)cc1`, the AC50 reads like this: under setting [1], 35.5 µM [falling, single point]; under setting [2], 35.5 µM [falling, single point].
On to `CC1CC2=C(CC1/C=N/NC(N)=S)C(C)(C)CCC2` (stereo unspecified), for which the AC50 under setting [1] is 12.6 µM [rising, single point].
The same measure, in the same setting: in the case of `Nc1nnc(N2CCCCC2)s1` it was 0.158 µM [rising, full curve, poor fit].
Consider `CC(C)(C)C(=O)Nc1nc(C2CCCN2S(=O)(=O)c2ccc(Cl)cc2)cs1` (stereo unspecified), for which the AC50 under setting [2] was 22.4 µM [rising, single point].
For `CCc1ccc2[nH]c(=O)c(CN(Cc3ccc(OC)cc3)Cc3nnnn3CCOC)cc2c1`, the AC50 is 35.5 µM [rising, single point] under setting [1] and 0.355 µM [rising, partial curve, poor fit] under setting [2].
For `COc1cccc(-n2c(SCC(=O)NCc3ccco3)nnc2-c2c[nH]c3ccccc23)c1`, the AC50 under setting [2] is 14.1 µM [rising, partial curve, poor fit].
The same measure, in the same setting: the figure for `CCC(C(=O)NC1CCCCC1)n1c(SCc2cccc(C)c2)nc2ccncc21` (stereo unspecified) is 12.6 µM [rising, partial curve].
As to `COc1cc(/C=N/OCC(=O)NC2CCCCC2)ccc1OCc1ccccc1`, the half-maximal activity concentration (AC50) is, setting by setting: under setting [1], 11.2 µM [rising, partial curve]; under setting [2], 15.8 µM [rising, single point].
On to `CCCc1cc(N2CCCC(C(=O)NCC)C2)n2ncnc2n1` (stereo unspecified), for which the AC50 under setting [2] was 3.98 µM [rising, single point].
With `O=C(CCc1ccccc1)N1CCN(c2ccccn2)CC1`, the AC50 under setting [1] is 8.91 µM [rising, partial curve].
With `O=C(CCCN1C(=O)c2cccc3cccc(c23)C1=O)N1CCN(c2ccccc2O)CC1`, under setting [2], the AC50 was 14.1 µM [rising, partial curve].
`Cc1ccc(-n2nnnc2SCC(=O)NC2CCCc3ccccc32)c(C)c1` (stereo unspecified): the AC50 was 20 µM [rising, partial curve, poor fit] under setting [1] and 28.2 µM [rising, single point] under setting [2].
Consider `Cc1cccc(Nc2nnc(SCC3CCCCO3)s2)c1C` (stereo unspecified), for which the AC50 under setting [2] is 25.1 µM [rising, single point].
With `COc1cc(C(=O)Nc2ccc3c(c2)N(C(=O)CCN(C)C)c2ccccc2CC3)cc(OC)c1OC`, the AC50 under setting [1] was 10 µM [falling, partial curve] and the AC50 under setting [2] is 8.91 µM [falling, partial curve, poor fit].
In the case of `Cc1ccc(/C=C/C(=O)Nc2ccc(Oc3ccccc3)cc2)o1`, the AC50 under setting [2] was 5.62 µM [rising, single point].
Regarding `Fc1ccc(NC(=S)N/N=C/c2ccc(F)c(F)c2)cc1`, under setting [1], the AC50 was 17.8 µM [rising, single point].
